Data published in PubChem BioAssay AID504648 (National Center for Advancing Translational Sciences (NCATS), 2011).
Among all 390,000 compounds or so, about 610 (0.16%) were called active. Inconclusive results, whose numbers are uncertain, are shown with a selection of clear calls. Calls follow the shape of the dose curve; as a rule, active = well fitted inhibition curve with a large enough effect; inconclusive = small, poorly fitted or top-dose-only effect, or effect the other way, or another doubt; inactive = no such curve, though single readings can be large or run the other way. A potency beside an inconclusive call is a rough fit, not a confirmed value.

Experiment: Nrf2 qHTS screen for inhibitors: counterscreen for cytotoxicity
Details: A549 ARE-Fluc cells, CellTiter-Fluor viability, 18-24 h; series mostly up to 46 µM
In short: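 A549 ARE_Fluc cells in 5% FBS OPTI-MEM were exposed to compounds in concentration-response for 18-24 h at 37 deg C. Viability was read by CellTiter-Fluor fluorescence (Ex 405/Em 525) after 30 min, before the luciferase read.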
Potency is read from the fitted curve at half-maximal effect.

| SMILES | Potency |
| --- | --- |
| Cc1nc2scc(C)n2c(=O)c1S(=O)(=O)Nc1ccc(F)cc1 | inactive |
| O=C(c1ccc(C#Cc2ccccc2)o1)N1CCN(c2ccccn2)CC1 | inconclusive: 29.1 µM [falling, single point] |
| COC(=O)Cc1c(O)ccn(Cc2ccc(F)cc2)c1=O | inconclusive: 25.9 µM [activator, partial curve, poor fit] |
| CCN1C(=O)[C@@H]2[C@@H](c3ccc(SC4CCCCC4)cc3)N3CCCC[C@@]3(C(=O)OC)[C@@H]2C1=O | inactive |
| CCCCCCNCc1c(F)cccc1Cl | inconclusive: 6.51 µM [activator, single point] |
| O=S(=O)(c1ccc(Br)cc1)n1ccc2ccccc21 | inconclusive: 4.61 µM [falling, partial curve, poor fit] |
| Nc1nc2ccccc2n1/N=C/c1ccc([N+](=O)[O-])s1 | inconclusive: 7.31 µM [falling, partial curve] |
| Cc1ccc(C(=O)NCc2cccc(C(F)(F)F)c2)cc1S(=O)(=O)N1CCCCC1 | inactive |
| O=C(Nc1ccc(N2CCN(C(=O)c3ccccc3)CC2)cc1)c1cc2ccccc2o1 | inactive |
| Cc1ccc2c(c1)-c1c(cnn1CC(=O)N1CCN(c3cccc(C(F)(F)F)c3)CC1)CO2 | inconclusive: 29.1 µM [falling, single point] |
| COc1ccc2[nH]c(C(=O)NCCN3CCCCC3)cc2c1 | inactive |
| CCn1c(=N)c(C(=O)NCCCOC)cc2c(=O)n3cccc(C)c3nc21 | inconclusive: 20.6 µM [activator, partial curve] |
| CC(C)(CNC(=O)c1cc([N+](=O)[O-])ccc1N1CCC(Cc2ccccc2)CC1)N1CCOCC1 | inconclusive: 18.4 µM [falling, single point] |
| CCN(C(=O)C(NS(=O)(=O)c1cccc2nsnc12)c1ccccc1)c1ccccc1 (stereo not drawn) | inconclusive: 16.4 µM [falling, partial curve, poor fit] |
| COc1ccc(C2=NN(C(=O)CSc3nc(=O)n4ccc(C)cc4n3)C(c3ccc(C)cc3)C2)cc1 (stereo not drawn) | inconclusive: 8.2 µM [falling, partial curve, poor fit] |
| O=C(CSc1ccsc1[N+](=O)[O-])NCc1ccccc1 | inactive |
| NS(=O)(=O)c1ccc(CCNC(=O)c2ccc([N+](=O)[O-])s2)cc1 | inconclusive: 25.9 µM [falling, single point] |
| COc1ccc(OC)c(/C=N/NC(=O)c2cc3c(OC)cccc3[nH]2)c1 | inconclusive: 18.4 µM [activator, single point] |
| CCn1cc(C(=O)NCCCO)c(=O)c2cc(F)c(N3CCN(C)CC3)cc21 | inactive |
| CCOC(=O)[C@H]1[C@H]2COc3ccc(Cl)cc3[C@@H]2N2C(=O)c3ccc(C)cc3NC(=O)[C@@]12C | inactive |
| O=S(=O)(Nc1cccc(-c2cn3cccnc3n2)c1)c1ccc(-c2ccccc2)cc1 | inactive |
| Cc1csc2nc(-c3cccc(NC(=O)c4ccc(S(N)(=O)=O)cc4)c3)cn12 | inactive |
| CCc1ccccc1NC(=O)CSc1ncc2c(n1)-c1ccccc1N(C)S2(=O)=O | inconclusive: 29.1 µM [falling, single point] |

Compounds listed so far that contain an aryl thioether with sulfur outside any ring (4):

| SMILES | Potency |
| --- | --- |
| CCN1C(=O)[C@@H]2[C@@H](c3ccc(SC4CCCCC4)cc3)N3CCCC[C@@]3(C(=O)OC)[C@@H]2C1=O | inactive |
| COc1ccc(C2=NN(C(=O)CSc3nc(=O)n4ccc(C)cc4n3)C(c3ccc(C)cc3)C2)cc1 (stereo not drawn) | inconclusive: 8.2 µM [falling, partial curve, poor fit] |
| O=C(CSc1ccsc1[N+](=O)[O-])NCc1ccccc1 | inactive |
| CCc1ccccc1NC(=O)CSc1ncc2c(n1)-c1ccccc1N(C)S2(=O)=O | inconclusive: 29.1 µM [falling, single point] |

Additional results:

| SMILES | Potency |
| --- | --- |
| CCN(CC)CCNC(=S)Nc1ccc2nc(N3CCN(CC)CC3)cc(C)c2c1 | inconclusive: 20.6 µM [falling, single point] |
| COc1cccc(NC(=O)Cn2c(=O)n(Cc3nc(-c4ccccc4)no3)c(=O)c3ccccc32)c1 | inactive |
| Cc1cc(C)cc(NS(=O)(=O)c2ccc(-c3cc(C)no3)cc2)c1 | inactive |
| O=C(CCCN1C(=O)/C(=C/c2ccccc2Cl)SC1=S)Nc1cccnc1 | inconclusive: 29.1 µM [falling, single point] |
| Cc1ccc(S(=O)(=O)CC(C)N2CCN(C3CCCCC3)CC2)cc1 (stereo not drawn) | inconclusive: 32.6 µM [activator, partial curve, poor fit] |
| COc1cc(OC)cc(C(=O)NC(=S)N2CCN(c3ccc(C(F)(F)F)cc3[N+](=O)[O-])CC2)c1 | inconclusive: 23.1 µM [falling, partial curve] |
| CCCCN(Cc1cc2cc(OC)ccc2[nH]c1=O)S(=O)(=O)c1ccc(C)cc1 | inconclusive: 25.9 µM [falling, partial curve, poor fit] |
| O=C(O)CCc1nn2cc(-c3ccccc3)nc2[nH]c1=O | inconclusive: 29.1 µM [activator, partial curve, poor fit] |
| Cc1nn(C)c(C)c1NS(=O)(=O)c1ccc(N2CCCC2=O)cc1 | inactive |
| Cc1ccnc(NC(=O)C2CCN(S(=O)(=O)c3c(C)c(C)cc(C)c3C)CC2)c1 | inconclusive: 29.1 µM [falling, single point] |
| S=c1cn[nH]c2ccccc12 | inactive |
| Clc1ccc(C2=Nn3c(nnc3-c3n[nH]c4c3CCC4)SC2)cc1 | inconclusive: 4.11 µM [falling, partial curve, poor fit] |
| COc1cc(C(N)=O)cc(Br)c1OCc1ccccc1 | inactive |
| C=CCNc1ncnc2c1[nH]c1ccc(Cl)cc12 | inconclusive: 29.1 µM [falling, single point] |
| COc1ccc(NC(=O)CSc2cn(CCNC(=O)c3ccc(OC)cc3)c3ccccc23)cc1 | inactive |
| CC(C)(C)OC(=O)N(Cc1ccccc1)Cc1cccc(OCc2cccc(NC(=O)C3CC3)c2)c1 | inactive |
| CC1=C(C(=O)Nc2ccccc2)C(c2ccc(Cl)cc2)n2c(s/c(=C/c3cccc(OCC(=O)O)c3)c2=O)=N1 (stereo not drawn) | inactive |
| Cc1nn(-c2ccccc2)c2c1C(c1ccc([N+](=O)[O-])cc1)N1C(=N2)C(=O)Nc2ccccc21 (stereo not drawn) | inconclusive: 20.6 µM [falling, partial curve, poor fit] |
| Cc1oc(-c2cccc(Br)c2)nc1Cn1c(SCc2cccc(F)c2)nc2cccnc21 | inactive |
| Oc1c(CN2CCCCC2)cc(COCc2ccccc2)c2cccnc12 | inconclusive: 16.4 µM [falling, partial curve] |
| Cc1ccc(/C=N/NS(=O)(=O)c2ccc([N+](=O)[O-])cc2)o1 | inconclusive: 11.6 µM [activator, partial curve, poor fit] |
| CCn1c(CN2CCCCC2)nc2cc(NC(=O)COc3ccc(C(C)(C)C)cc3)ccc21 | inconclusive: 29.1 µM [falling, partial curve, poor fit] |
| CC1CC=CC2C1C(=O)N(Cc1ccccc1)C2c1ccc2ccccc2c1 (stereo not drawn) | inconclusive: 29.1 µM [falling, partial curve, poor fit] |

| SMILES | Potency |
| --- | --- |
| Cn1c(/C=C/c2ccc(Cl)cc2Cl)c([N+](=O)[O-])c(=O)n(C)c1=O | inconclusive: 23.1 µM [falling, single point] |
| COc1ccc2c(c1)NC(c1ccc(Cl)cc1)=NC(c1cccs1)=N2 | inactive |
| C=CCn1c(SCc2nc3ccccc3nc2C)nnc1-c1ccoc1C | inactive |
| CCc1ccc(-c2nc(CS(=O)CC(=O)NC3CCCCCC3)c(C)o2)cc1 (stereo not drawn) | inactive |
| CC(C)CSc1nnc2[nH]c(=O)cc(N)n12 | inconclusive: 18.4 µM [falling, partial curve, poor fit] |
| C[C@H]1O[C@@H](O[C@H]2[C@@H](O)C[C@H](O[C@H]3[C@@H](O)C[C@H](O[C@H]4CC[C@@]5(C)[C@H](CC[C@@H]6[C@@H]5C[C@@H](O)[C@]5(C)[C@@H](C7=CC(=O)OC7)CC[C@]65O)C4)O[C@@H]3C)O[C@@H]2C)C[C@H](O)[C@@H]1O | inconclusive: 0.291 µM [falling, full curve] |
| COc1ccc2nc(NC(=O)c3ccc([N+](=O)[O-])o3)sc2c1 | inactive |
| CCCCNC(=O)CC1N=C2c3ccccc3N=C(SCC(=O)Nc3ccccc3OC)N2C1=O (stereo not drawn) | inactive |
| CC(C)C(CCNC1CCN(C)CC1)c1ccc(Cl)cc1 (stereo not drawn) | inconclusive: 18.4 µM [falling, partial curve, poor fit] |
| Cc1ccc(Cn2c(CN3CC(C)OC(C)C3)nc3c2c(=O)n(C)c(=O)n3C)cc1 (stereo not drawn) | inconclusive: 20.6 µM [falling, single point] |
| O=C(O)c1ccc(Nc2cccc(F)c2)c([N+](=O)[O-])c1 | inconclusive: 20.6 µM [falling, single point] |
| CC(=O)Oc1ccc(C#C/C=C2\c3ccccc3C(=O)N2c2ccccc2)cc1 | inconclusive: 10.3 µM [falling, partial curve, poor fit] |
| C=CCN(c1ccccc1OC)S(=O)(=O)c1cccc(C(=O)OC2CCOC2=O)c1 (stereo not drawn) | inactive |
| O=C(NC(Nc1nc2ccc([N+](=O)[O-])cc2s1)(C(F)(F)F)C(F)(F)F)c1ccccc1 | active: 10.3 µM |
| Cc1cccc(/C(N)=N/OC(=O)N2c3ccccc3Sc3ccccc32)c1 | inconclusive: 9.2 µM [falling, partial curve, poor fit] |
| O=C(NC1CCCCC1)C(c1ccccc1)N(C(=O)Cc1ccsc1)c1ccccc1 (stereo not drawn) | inactive |
| CCc1ccc(NC(=O)CN2C(=O)CC(c3ccccc3)Sc3ccccc32)cc1 (stereo not drawn) | inactive |
| Cc1ccc(C)n1-c1ccc(-c2ccnc(N)n2)cc1 | inactive |
| Cc1ccc(NC(=O)C2CCCN(C(=O)c3ccc(Cl)cc3)C2)cc1S(=O)(=O)N1CCOCC1 (stereo not drawn) | inconclusive: 18.4 µM [falling, single point] |
| COc1ccc(N2C(=O)CC(Sc3nnnn3-c3ccc(F)cc3)C2=O)cc1 (stereo not drawn) | inconclusive: 29.1 µM [falling, single point] |
| CCOC(=O)c1c(-c2ccccc2)csc1NC(=O)c1nc(SCC)ncc1Cl | inactive |
| CCCCn1nc(C(=O)Nc2ccccc2N2CCCC2)c2ccccc2c1=O | inconclusive: 23.1 µM [falling, partial curve, poor fit] |
